Test results from paper PMC7515921, “MFSD7C switches mitochondrial ATP synthesis to thermogenesis in response to heme” (Nature Communications, 2020).

B1: Fcgr3 (protein, UniProt P08508 31-261)
chain: ALPKAVVKLDPPWIQVLKEDMVTLMCEGTHNPGNSSTQWFHNGRSIRSQVQASYTFKATVNDSGEYRCQMEQTRLSDPVDLGVISDWLLLQTPQRVFLEGETITLRCHSWRNKLLNRISFFHNEKSVRYHHYKSNFSIPKANHSHSGDYYCKGSLGSTQHQSKPVTITVQDPATTSSISLVWYHTAFSLVMCLLFAVDTGLYFYVRRNLQTPREYWRKSLSIRKHQAPQDK
B2: Fcgr1 (protein, UniProt P26151 25-404)
chain: EVVNATKAVITLQPPWVSIFQKENVTLWCEGPHLPGDSSTQWFINGTAVQISTPSYSIPEASFQDSGEYRCQIGSSMPSDPVQLQIHNDWLLLQASRRVLTEGEPLALRCHGWKNKLVYNVVFYRNGKSFQFSSDSEVAILKTNLSHSGIYHCSGTGRHRYTSAGVSITVKELFTTPVLRASVSSPFPEGSLVTLNCETNLLLQRPGLQLHFSFYVGSKILEYRNTSSEYHIARAEREDAGFYWCEVATEDSSVLKRSPELELQVLGPQSSAPVWFHILFYLSVGIMFSLNTVLYVKIHRLQREKKYNLEVPLVSEQGKKANSFQQVRSDGVYEEVTATASQTTPKEAPDGPRSSVGDCGPEQPEPLPPSDSTGAQTSQS
B3: Slc25a3 (protein, UniProt Q8VEM8 46-357)
chain: AVEEYSCEFGSMKYYALCGFGGVLSCGLTHTAVVPLDLVKCRMQVDPQKYKGIFNGFSITLKEDGVRGLAKGWAPTLIGYSMQGLCKFGFYEVFKALYSNILGEENTYLWRTSLYLASSASAEFFADIALAPMEAAKVRIQTQPGYANTLREAVPKMYKEEGLNAFYKGVAPLWMRQIPYTMMKFACFERTVEALYKFVVPKPRSECTKAEQLVVTFVAGYIAGVFCAIVSHPADSVVSVLNKEKGSTASQVLQRLGFRGVWKGLFARIIMIGTLTALQWFIYDSVKVYFRLPRPPPPEMPESLKKKLGLTE
B4: Slc33a1 (protein, UniProt Q99J27 1-550)
chain: MSPTISHKDSSRQRRSGMFSHALDMKSGPLPPGGWDDSRRDSVGGEGDREVLLGDAGPGDLPKAPRSYRSELSSILLLLFLYVLQGIPLGLAGSIPLILQSKNVSYTDQAFFSFVFWPFSLKLLWAPLVDAVYFKNFGRRKSWLVPTQYTLGIFMIYLSTQVDRLLGNIDGRTPDVVALTVTFFLFEFLAATQDIAVDGWALTMLSRENVGYASTCNSVGQTAGYFLGNVLFLALESADFCNKYLRFQPQPRGIVTLSDFLFFWGTVFLITTTLVALLKKENREASIVKEETQGITDTYKLLFSIIKMPAVLAFCLLILTSKIGFSAADAVTGLKLVEEGVPKEHLALLAVPMVPLQIILPLLISKYTAGPQPLNIFYKAMPYRLLLGLEYALLVWWTPKVEHQGGFPLYYYIIVLLSYALHQVTLYSMYVSIMAFNAKVSDPLIGGTYMTLLNTVSNLGGNWPSTVALWLVDPLTVKECVGASNQNCRTPDAIELCKKLGGSCVTALDGYYVESIICVLIGFGWWFFLGPKFKKLQDEGPSSWKCKRNN
B5: Slc25a22 (protein, UniProt Q9D6M3 1-323)
chain: MADKQISLPAKLINGGIAGLIGVTCVFPIDLAKTRLQNQQNGQRMYASMSDCLIKTIRSEGYFGMYRGAAVNLTLVTPEKAIKLAANDFFRHQLSKDGQKLTLPKEMLAGCGAGTCQVIVTTPMEMLKIQLQDAGRIAAQRKILAAQAQLSAQGGAQPSVEAPAPPRPTATQLTRDLLRNHGIAGLYKGLGATLLRDVPFSIVYFPLFANLNQLGRPSSEEKSPFYVSFLAGCVAGSAAAVAVNPCDVVKTRLQSLERGVNEDTYSGFLDCARKIWRHEGPSAFLKGAYCRALVIAPLFGIAQVVYFLGIAESLLGLLQEPQA
B6: Slc25a11 (protein, UniProt Q9CR62 1-314)
chain: MAATASPGAGRMDGKPRTSPKSVKFLFGGLAGMGATVFVQPLDLVKNRMQLSGEGAKTREYKTSFHALTSILKTEGLKGIYTGLSAGLLRQATYTTTRLGIYTVLFERLTGADGTPPGFLLKALIGMTAGATGAFVGTPAEVALIRMTADGRLPADQRRGYKNVFNALVRIAREEGVPTLWRGCIPTMARAVVVNAAQLASYSQSKQFLLDSGYFSDNILCHFCASMISGLVTTAASMPVDIVKTRIQNMRMIDGKPEYKNGLDVLLKVVRYEGFFSLWKGFTPYYARLGPHTVLTFIFLEQMNKAYKRLFLSG
B7: Slc16a1 (protein, UniProt P53986 1-493)
chain: MPPAIGGPVGYTPPDGGWGWAVLVGAFISIGFSYAFPKSITVFFKEIEVIFSATTSEVSWISSIMLAVMYAGGPISSILVNKYGSRPVMIAGGCLSGCGLIAASFCNTVQELYLCIGVIGGLGLAFNLNPALTMIGKYFYKKRPLANGLAMAGSPVFLSTLAPLNQAFFDIFDWRGSFLILGGLLLNCCVAGSLMRPIGPEQVKLEKLKSKESLQEAGKSDANTDLIGGSPKGEKLSVFQTINKFLDLSLFTHRGFLLYLSGNVVMFFGLFTPLVFLSSYGKSKDFSSEKSAFLLSILAFVDMVARPSMGLAANTKWIRPRIQYFFAASVVANGVCHLLAPLSTTYVGFCVYAGVFGFAFGWLSSVLFETLMDLIGPQRFSSAVGLVTIVECCPVLLGPPLLGRLNDMYGDYKYTYWACGVILIIAGIYLFIGMGINYRLLAKEQKAEEKQKREGKEDEASTDVDEKPKETMKAAQSPQQHSSGDPTEEESPV
B8: G3bp2 (protein, UniProt P97379 1-482)
chain: MVMEKPSPLLVGREFVRQYYTLLNKAPEYLHRFYGRNSSYVHGGVDASGKPQEAVYGQNDIHHKVLSLNFSECHTKIRHVDAHATLSDGVVVQVMGLLSNSGQPERKFMQTFVLAPEGSVPNKFYVHNDMFRYEDEVFGDSEPELDEESEDEVEEEQEDRQPSPEPVQENANSAYYDAHPVTNGIEEPLEESSHEPEPEPESETKTEELKPQVEEKHLEELEEKSATPPPAEPASLPQEPPKAFSWASVTSKNLPPSGTVSSSGIPPHVKAPVSQPRVDAKPEVQSQPPRVREQRPRERPGFPPRGPRPGRGDMEQNDSDNRRIIRYPDSHQLFVGNLPHDIDENELKEFFMSFGNVVELRINTKGVGGKLPNFGFVVFDDSEPVQRILIAKPIMFRGEVRLNVEEKKTRAARERETRGGGDDRRDIRRNDRGPGGPRGIVGGGMMRDRDGRGPPPRGGMTQKLGSGRGTGQMEGRFTGQRR
B9: Oas1a (protein, UniProt P11928 1-367)
chain: MEHGLRSIPAWTLDKFIEDYLLPDTTFGADVKSAVNVVCDFLKERCFQGAAHPVRVSKVVKGGSSGKGTTLKGKSDADLVVFLNNLTSFEDQLNRRGEFIKEIKKQLYEVQHERRFRVKFEVQSSWWPNARSLSFKLSAPHLHQEVEFDVLPAFDVLGHVNTSSKPDPRIYAILIEECTSLGKDGEFSTCFTELQRNFLKQRPTKLKSLIRLVKHWYQLCKEKLGKPLPPQYALELLTVFAWEQGNGCYEFNTAQGFRTVLELVINYQHLRIYWTKYYDFQHQEVSKYLHRQLRKARPVILDPADPTGNVAGGNPEGWRRLAEEADVWLWYPCFIKKDGSRVSSWDVPTVVPVPFEQVEENWTCILL
B10: Cap1 (protein, UniProt P40124 1-474)
chain: MADMQNLVERLERAVGRLEAVSHTSDMHCGYGDSPSKGAVPYVQAFDSLLANPVAEYLKMSKEIGGDVQKHAEMVHTGLKLERALLATASQCQQPAGNKLSDLLAPISEQIQEVITFREKNRGSKFFNHLSAVSESIQALGWVALAAKPGPFVKEMNDAAMFYTNRVLKEYRDVDKKHVDWVRAYLSIWTELQAYIKEFHTTGLAWSKTGPVAKELSGLPSGPSVGSGPPPPPPGPPPPPISTSSGSDDSASRSALFAQINQGESITHALKHVSDDMKTHKNPALKAQSGPVRSGPKPFSAPKPQTSPSPKPATKKEPALLELEGKKWRVENQENVSNLVIDDTELKQVAYIYKCVNTTLQIKGKINSITVDNCKKLGLVFDDVVGIVEIINSRDVKVQVMGKVPTISINKTDGCHAYLSKNSLDCEIVSAKSSEMNVLIPTEGGDFNEFPVPEQFKTLWNGQKLVTTVTEIAG
B11: STT3B (protein, UniProt Q3TDQ1 1-823)
chain: MAEPSAPESKHKSSLNSSPWSGLMALGNSRHGHHGPGTQSASSAAAPKPGPPAGLSGGLSQPAGWQSLLSFTILFLAWLAGFSSRLFAVIRFESIIHEFDPWFNYRSTHHLASHGFYEFLNWFDERAWYPLGRIVGGTVYPGLMITAGLIHWILNTLNITVHIRDVCVFLAPTFSGLTSISTFLLTRELWNQGAGLLAACFIAIVPGYISRSVAGSFDNEGIAIFALQFTYYLWVKSVKTGSVFWTMCCCLSYFYMVSAWGGYVFIINLIPLHVFVLLLMQRYSKRVYIAYSTFYIVGLILSMQIPFVGFQPIRTSEHMAAAGVFALLQAYAFLQYLRDRLTKQEFQTLFFLGVSLAAGAVFLSVIYLTYTGYIAPWSGRFYSLWDTGYAKIHIPIIASVSEHQPTTWVSFFFDLHILVCTFPAGLWFCIKNINDERVFVALYAISAVYFAGVMVRLMLTLTPVVCMLSAIAFSNVFEHYLGDDMKRENPPVEDSSDEDDKRNPGNLYDKAGKVRKHVTEQEKPEEGLGPNIKSIVTMLMLMLLMMFAVHCTWVTSNAYSSPSVVLASYNHDGTRNILDDFREAYFWLRQNTDEHARVMSWWDYGYQIAGMANRTTLVDNNTWNNSHIALVGKAMSSNETAAYKIMRSLDVDYVLVIFGGVIGYSGDDINKFLWMVRIAEGEHPKDIREGDYFTQQGEFRVDKAGSPTLLNCLMYKMSYYRFGEMQLDFRTPPGFDRTRNAEIGNKDIKFKHLEEAFTSEHWLVRIYKVKAPDNRETLGHKPRVTNIVPKQKYLSKKTTKRKRGYVKNKLVFKKGKKTSKKTV
B12: Mlec (protein, UniProt Q6ZQI3 31-291)
chain: PGLGVVGAAGAGLPESVIWAVNAGGEAHVDVHGIHFRKDPLEGRVGRASDYGMKLPILRSTPEDQILYQTERYNEETFGYEVPVKEEGDYVLVLKFAEVYFAQSQQKVFDVRLNGHVVVKDLDIFDRVGHSTAHDEIIPMSIRKGKLSVRGEVSTFTGKLYIEFVKGYYDNPKVCALYILAGTVDDVPKLQPHPGLEKKEEEEEEEEYDEGSNLKRQTNKNRVQSGPRTPNPYASDNSSLMFPILVAFGVFIPTLFCLCRL

target: T1, MFSD7C tagged with both Myc and FLAG epitopes (murine) (mouse) (UniProt Q91X85); experiment: affinity purification with mass spectrometry; lysate of MH-S cells expressing MFSD7C-FLAG-Myc (control: GFP alone); 20 mM Tris-HCl pH 7.4, 150 mM NaCl, 0.1% NP-40, 10% glycerol; anti-FLAG beads, 3x FLAG peptide elution, then anti-Myc beads; LC-MS/MS
T1 sequence: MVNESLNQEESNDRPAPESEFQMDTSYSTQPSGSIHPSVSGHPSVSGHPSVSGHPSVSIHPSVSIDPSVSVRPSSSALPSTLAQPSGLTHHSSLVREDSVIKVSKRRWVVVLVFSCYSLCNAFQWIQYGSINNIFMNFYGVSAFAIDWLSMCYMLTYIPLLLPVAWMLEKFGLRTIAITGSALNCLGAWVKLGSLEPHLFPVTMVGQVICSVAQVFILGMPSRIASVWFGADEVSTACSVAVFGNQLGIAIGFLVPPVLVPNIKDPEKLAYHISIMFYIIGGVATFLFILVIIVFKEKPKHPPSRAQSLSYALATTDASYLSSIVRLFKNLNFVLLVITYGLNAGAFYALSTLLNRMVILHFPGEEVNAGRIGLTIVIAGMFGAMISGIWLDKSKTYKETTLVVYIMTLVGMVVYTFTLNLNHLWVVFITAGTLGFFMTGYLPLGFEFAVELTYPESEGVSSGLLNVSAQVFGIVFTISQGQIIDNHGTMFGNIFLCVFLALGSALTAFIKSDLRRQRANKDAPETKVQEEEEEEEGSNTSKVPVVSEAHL

Row | Binder | binding
1 | B1 | binds
2 | B2 | binds
3 | B3 | binds
4 | B4 | binds
5 | B5 | binds
6 | B6 | binds
7 | B7 | binds
8 | B8 | binds
9 | B9 | binds
10 | B10 | binds
11 | B11 | binds
12 | B12 | binds

Results are given in words; binding and its absence hold for the method and conditions named. In cells and extracts the contact can be indirect. A yes stands for co-enrichment or nearness to the bait. Other partners may have been found. Tags and fused reporters may be left off the sequences shown.
